This is one part of the list.

The test relates to T1, CTL2-GFP (C. trachomatis L2/434/Bu, GFP-expressing).
T1 construct: L2/434/Bu, GFP-expressing
More on the design: species or system HeLa; Intracellular C. trachomatis growth in HeLa cells, bulk GFP fluorescence relative to DMSO. As to conditions: bulk GFP, single well; 28.5 h, 10 µM; inhibitor.
As for `OCCCNCC(O)CN1c2ccccc2Sc2ccccc21` (centres unmarked) [CBK027632G], the “% of control remaining” value stood at 108.689%.

With `Cc1cc(S(=O)(=O)N2CCCC2)ccc1OCC(=O)NCc1ccncc1` [CBK269886], the “% of control remaining” value was found to be 123.335%.

Take `Cc1ccnc(N2C(=O)c3ccc(C(=O)c4ccc5c(c4)C(=O)N(c4cc(C)ccn4)C5=O)cc3C2=O)c1` [CBK263041]: the “% of control remaining” value is 101.151%.

For `O=S(=O)(Nc1cccc2[nH]ccc12)c1ccc(Br)cc1F` [CBK153547], the “% of control remaining” value came out at 109.234%.

Regarding `O=C1CC(SCc2nc3ccccc3[nH]2)C(=O)N1c1cccc(Cl)c1` (centres unmarked) [CBK266731], the “% of control remaining” value turned out to be 180.162%.

For `COc1ccc(-c2cc(=O)[nH]c(N3CCN(C)CC3)n2)cc1` [CBK003849], the “% of control remaining” value came out at 76.2505%.

As for `COc1ccc(CCNC(=O)CCn2cncn2)cc1` [CBK305881], the “% of control remaining” value was found to be 110.168%.

Consider `O=C(O)/C=C/c1cccc(/C=C/C(=O)O)c1` [CBK261650], for which the “% of control remaining” value was 100%.

Take `COc1cc(-c2cncc(Nc3cccc(C(F)(F)F)c3)n2)cc(OC)c1OC` [CBK065213]: the “% of control remaining” value is reported as 107.426%.

As for `O=[N+]([O-])c1ccc(Oc2ccccc2F)cc1` [CBK002532], the “% of control remaining” value is 117.491%.

As for `CC(=O)NC(CC(=O)N1CCc2sccc2C1C)c1ccc(C)cc1` (centres unmarked) [CBK305378], the “% of control remaining” value was determined as 121.428%.

In the case of `COCCn1cc(C(=O)N2CCCC2c2ccncc2)c2ccccc21` (centres unmarked) [CBK305286], the “% of control remaining” value is recorded as 102.28%.

Consider `O[C@H]1[C@H](NCc2ccco2)[C@H]2CO[C@H](O2)[C@@H]1N1CCCCC1` [CBK288825], for which the “% of control remaining” value is given as 122.461%.

As for `O=C(NC(=S)Nc1ccc(-c2nc3ncccc3o2)cc1)c1ccc2c(c1)OCCO2` [CBK265812], the “% of control remaining” value turned out to be 142.622%.

For the compound `O=C(C1CC2C=CC1C21CC1)N1CCC(Oc2ccccc2F)CC1` (centres unmarked) [CBK282179], the “% of control remaining” value worked out at 119.068%.

For `O=C(c1ccccc1NS(=O)(=O)c1ccc(C(F)(F)F)cc1[N+](=O)[O-])N1CCOCC1` [CBK043353], the “% of control remaining” value came out at 116.868%.

As to `CCOC(=O)CCCNC(=O)N1CCN(c2ccccc2)CC1` [CBK155209], the “% of control remaining” value was 123.472%.

For the compound `Cc1ccc(C(CC(=O)O)NC(=O)c2ccc(S(=O)(=O)N3CCCC(C)C3)cc2)cc1` (centres unmarked) [CBK295345], the “% of control remaining” value was found to be 137.504%.

Turning to `Cc1noc(C)c1NC(=O)Cc1cccnc1` [CBK200391], the “% of control remaining” value is reported as 95.5556%.

For `Cc1c(S(=O)(=O)Nc2cccc(C(=O)OCC3CCCN(C)C3)c2)sc2ccc(Cl)cc12` (centres unmarked) [CBK167735G], the “% of control remaining” value is given as 133.26%.

In the case of `CN(C)c1ccc(CCNS(=O)(=O)c2ccc3[nH]c(=O)[nH]c(=O)c3c2)cc1` [CBK285938], the “% of control remaining” value was found to be 114.433%.

Take `Cc1cc2c(cc3c(=O)n(CC(=O)N4CCCCCC4)nc(C)n32)o1` [CBK283591]: the “% of control remaining” value was 127.831%.

`Cc1ccc(N2CC(c3nnc(N)o3)CC2=O)cc1` (centres unmarked) [CBK288061]: the “% of control remaining” value amounted to 131.761%.

Take `CC(C)(C)c1cn2c3ccccc3nc2n1CCN1CCOCC1` [CBK278252C]: the “% of control remaining” value is recorded as 107.22%.

For the compound `COc1cccc(CN2CCN(C(=O)c3ccco3)[C@@H](C)C2)c1` [CBK284267], the “% of control remaining” value is on record as 108.492%.

For the compound `CC(C)(C)C(=O)N1CCC(n2nc(-c3cccs3)ccc2=O)CC1` [CBK284182], the “% of control remaining” value is given as 160.344%.

Consider `CCN(CC)C(=O)CN1CCC(Oc2cncc(OCc3ccc(Cl)c(Cl)c3)n2)C1` (centres unmarked) [CBK084431], for which the “% of control remaining” value worked out at 90.8843%.

`CCN(Cc1cccc(C(=O)O)c1)Cc1noc(C2CCC2)n1` [CBK307708]: the “% of control remaining” value was found to be 157.06%.

For `CCc1c(O)c2ccccc2n(Cc2ccccc2)c1=O` [CBK219367], the “% of control remaining” value worked out at 110.135%.

Turning to `CCCC(=O)Nc1ccc(OCc2ncc(C(C)C)o2)c(C(C)=O)c1` [CBK305516], the “% of control remaining” value was determined as 119.273%.

On to `COc1ccc(-n2cc(-c3ccccc3C(F)(F)F)nn2)cc1OC` [CBK112965], for which the “% of control remaining” value is reported as 111.413%.

As for `Cc1ccccc1OCC(=O)NN1CCN(C)CC1` [CBK265783C], the “% of control remaining” value was 119.398%.

Consider `COc1ccc2c(c1)C1(Nc3ccccc3C(=O)N1c1ccccc1)C(=O)N2` (centres unmarked) [CBK103747], for which the “% of control remaining” value is 78.3721%.

Consider `O=C(O)c1c(Cl)c(C(=O)O)c(C(=O)O)c(Cl)c1C(=O)O` [CBK261177], for which the “% of control remaining” value is 105.205%.

For `S=c1n(CN2CCC3(CC2)OCCO3)nc(-c2ccccc2Cl)n1-c1ccccc1` [CBK265222], the “% of control remaining” value amounted to 97.1511%.

In the case of `CCCNC(=O)NCCc1cccs1` [CBK043675], the “% of control remaining” value amounted to 168.478%.

As for `CC(=O)NC(=S)Nc1ccc(Oc2ccccc2)cc1` [CBK288454], the “% of control remaining” value is listed as 120.103%.

As for `COc1ccccc1N1CCN(C(=O)c2ccccc2C(=O)c2ccccc2)CC1` [CBK091506], the “% of control remaining” value was 111.643%.

As for `COc1ccccc1CC(=O)N1CCCC1c1nc2ccccc2[nH]1` (centres unmarked) [CBK285517], the “% of control remaining” value turned out to be 111.459%.

Regarding `O=C(Nc1ccc2nsnc2c1NC(=O)c1ccc2nsnc2c1)c1ccc2nsnc2c1` [CBK264309], the “% of control remaining” value came to 127.762%.

Turning to `CC1=C(C)C(=NNC(N)=S)C(C)=C(C)C1=NNC(N)=S` [CBK261262], the “% of control remaining” value was 17.1685%.

For the compound `CN(C)CCNc1c2c(nc3ccccc13)CCC2` [CBK263732C], the “% of control remaining” value amounted to 112.272%.

As to `CNC(=O)c1ccc(NC(=O)N2CCCCC2c2ccnn2C)cc1` (centres unmarked) [CBK305521], the “% of control remaining” value amounted to 102.699%.

Regarding `O=c1c(N2CCN(CCOc3ccccc3)CC2)nccn1CCOc1cc(F)c(F)cc1F` [CBK045934C], the “% of control remaining” value came to 128.49%.

`Cc1ccccc1C(NC(=O)C1CCN(C(=O)NCCc2ccccc2)CC1)c1ncccc1C` (centres unmarked) [CBK060409]: the “% of control remaining” value came to 111.286%.

For `Oc1cccc2ccc(-n3ccnc3)nc12` [CBK017812], the “% of control remaining” value came to 173.918%.

With `Cn1cc(C2CCCCCN2C(=O)c2nn(C)cc2Cl)cn1` (centres unmarked) [CBK284972], the “% of control remaining” value came out at 127.186%.

For the compound `O=C(CSc1nc(N2CCOCC2)nc(N2CCOCC2)n1)c1ccc([N+](=O)[O-])cc1` [CBK269107], the “% of control remaining” value amounted to 119.757%.

Regarding `COc1ccc(O)c(-c2c(-c3ccc(C)cc3)n[nH]c2C)c1` [CBK287961], the “% of control remaining” value is recorded as 123.11%.

As for `CCNc1cncc(-c2ccccc2)n1` [CBK065847], the “% of control remaining” value was 162.387%.

As for `O=C(/C=C/C=C/c1ccccc1)CC1(O)C(=O)N(Cc2cccc3ccccc23)c2ccccc21` (centres unmarked) [CBK264744], the “% of control remaining” value is reported as 117.671%.

For `CCC1CCCCN1C(=O)c1cc2ccccc2o1` (centres unmarked) [CBK078549], the “% of control remaining” value is 106.222%.

`O=C(NC1CCCCC1)c1csc(-c2ccncc2)n1` [CBK288591]: the “% of control remaining” value amounted to 122.75%.

In the case of `O=C1C2(c3ccccc3)CN(CCCO)CC1(c1ccccc1)CN(CCCO)C2` [CBK265912], the “% of control remaining” value is 114.414%.

Turning to `N#Cc1ccc(S(=O)(=O)N2CCC(OCc3ccncc3)C2)cn1` (centres unmarked) [CBK305478], the “% of control remaining” value stood at 111.545%.

For the compound `CC(C)(N)CNC(=O)c1cc(C(C)(C)C)nn1Cc1ccc(Cl)cc1Cl` [CBK107296], the “% of control remaining” value came to 34.953%.

Regarding `OCCCNc1cc(Nc2ccccc2)n2nccc2n1` [CBK037078], the “% of control remaining” value amounted to 155.838%.

Take `CCN(C)c1c(C)nc2c(OCc3ccccc3C(=O)OC)cccn12` [CBK147321]: the “% of control remaining” value was found to be 110.875%.

Take `CC(=O)NCC(=O)N1CCC2(C/C=C/CNC(=O)c3ccccc3OCCNC2=O)CC1` [CBK292006]: the “% of control remaining” value was 117.855%.

For `COc1ccccc1C(=O)Nc1ccc(Cl)c(C(=O)O)c1` [CBK287034], the “% of control remaining” value is listed as 154.343%.

Take `CC1(C#N)CCCN(Cc2c[nH]nc2C(=O)O)C1` (centres unmarked) [CBK307010]: the “% of control remaining” value was determined as 145.52%.

Take `COc1ccc(/C=C/C2=CCN(C)CC2)cc1Cn1cccn1` [CBK283859]: the “% of control remaining” value is 122.201%.

`O=C(O)CCn1cc(Br)c([N+](=O)[O-])n1` [CBK286916]: the “% of control remaining” value is listed as 109.331%.

Turning to `Cc1ccccc1COc1cccc(Cl)c1Cl` [CBK002607], the “% of control remaining” value was 116.271%.

Regarding `Cc1cc2c(o1)c1cnn(CC(=O)N3CCCCCC3)c(=O)c1n2C` [CBK284219], the “% of control remaining” value is given as 164.466%.

Turning to `CCN1C(=O)C2(CC(=O)N(CCOC)C2=O)c2cc(Cl)ccc21` (centres unmarked) [CBK075244], the “% of control remaining” value came to 80.0627%.

With `COc1cccc(Sc2cc(N3CCCC3)ncn2)c1` [CBK089533], the “% of control remaining” value is 105.123%.

Consider `Cc1cc(CC(=O)N2CCN(c3ncccn3)CC2)on1` [CBK144507], for which the “% of control remaining” value was found to be 106.785%.

For `CC(CC(=O)O)CC(=O)N1CCN(c2ccccn2)CC1` (centres unmarked) [CBK286839], the “% of control remaining” value was 115.146%.

As for `Nc1ncc(-c2ccco2)nc1NC1CCOCC1` [CBK063806], the “% of control remaining” value is 115.222%.

Regarding `COc1cccc(C(=O)NCCC(=O)N2CCc3ccccc3C2)c1` [CBK307575], the “% of control remaining” value was 153.3%.

Take `Cc1nn(C)cc1-c1cncn1Cc1ccc2c(c1)CCCO2` [CBK281797]: the “% of control remaining” value stood at 112.201%.

In the case of `COc1ccc(C(NC(C)=O)c2nccc3cc(OC)c(OC)cc23)cc1OC` (centres unmarked) [CBK270219], the “% of control remaining” value is on record as 137.741%.

Take `Cc1nn(-c2ccccc2)c2c1C(C(=O)c1ccc3c(c1)OCO3)CC(=O)N2` (centres unmarked) [CBK294436]: the “% of control remaining” value is reported as 136.979%.

For the compound `CCN(CC(=O)NCc1cccnc1)S(=O)(=O)c1ccc(F)cc1` [CBK269503], the “% of control remaining” value is on record as 127.192%.

For the compound `O=S(=O)(NC1c2cccc3cccc(c23)C1Sc1ncccn1)c1ccccc1` (centres unmarked) [CBK264706], the “% of control remaining” value was 91.7662%.

Regarding `Cc1cccc(C(=O)Oc2ccc(C(c3c(C)n[nH]c3O)c3c(C)n[nH]c3O)cc2)c1` [CBK264804], the “% of control remaining” value stood at 124.514%.

Turning to `Cc1ccc(S(=O)(=O)N(CC(=O)NCc2ccco2)c2cccc(C)c2)cc1` [CBK264125], the “% of control remaining” value is 110.154%.

For the compound `CC1(O)CCN(Cc2nnnn2-c2ccc(S(C)(=O)=O)cc2)CC1` [CBK304166], the “% of control remaining” value is reported as 108.299%.

In the case of `Cc1ccc(-c2nnc(CNC(=O)c3cccc(Cl)c3)o2)s1` [CBK284646], the “% of control remaining” value was 154.043%.

Source of the values: article PMC12040169 (PLOS Biology, 2025).
